Measurements from article PMC5578684.
These are yes or no findings as the source states them, for the method shown. Binding seen in cells or lysates may run through a third protein. Some binding calls cover weakened binding; strength is not graded here.

By UniProt entry, the sequences of proteins in these tests, tags left out.
UniProt Q9JKD9: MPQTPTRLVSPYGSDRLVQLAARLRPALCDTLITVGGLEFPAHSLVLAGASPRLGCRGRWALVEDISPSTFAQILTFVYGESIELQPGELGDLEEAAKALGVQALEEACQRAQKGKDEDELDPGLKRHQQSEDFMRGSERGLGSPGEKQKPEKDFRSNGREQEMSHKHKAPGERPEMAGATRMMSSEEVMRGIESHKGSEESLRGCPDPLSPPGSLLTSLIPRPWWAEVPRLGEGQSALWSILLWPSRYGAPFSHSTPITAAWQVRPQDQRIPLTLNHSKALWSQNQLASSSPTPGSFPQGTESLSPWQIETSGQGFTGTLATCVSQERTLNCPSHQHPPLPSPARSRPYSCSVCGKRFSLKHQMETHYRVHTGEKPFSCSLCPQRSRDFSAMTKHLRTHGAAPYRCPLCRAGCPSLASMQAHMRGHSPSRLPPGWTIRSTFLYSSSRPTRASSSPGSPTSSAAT
UniProt Q60636: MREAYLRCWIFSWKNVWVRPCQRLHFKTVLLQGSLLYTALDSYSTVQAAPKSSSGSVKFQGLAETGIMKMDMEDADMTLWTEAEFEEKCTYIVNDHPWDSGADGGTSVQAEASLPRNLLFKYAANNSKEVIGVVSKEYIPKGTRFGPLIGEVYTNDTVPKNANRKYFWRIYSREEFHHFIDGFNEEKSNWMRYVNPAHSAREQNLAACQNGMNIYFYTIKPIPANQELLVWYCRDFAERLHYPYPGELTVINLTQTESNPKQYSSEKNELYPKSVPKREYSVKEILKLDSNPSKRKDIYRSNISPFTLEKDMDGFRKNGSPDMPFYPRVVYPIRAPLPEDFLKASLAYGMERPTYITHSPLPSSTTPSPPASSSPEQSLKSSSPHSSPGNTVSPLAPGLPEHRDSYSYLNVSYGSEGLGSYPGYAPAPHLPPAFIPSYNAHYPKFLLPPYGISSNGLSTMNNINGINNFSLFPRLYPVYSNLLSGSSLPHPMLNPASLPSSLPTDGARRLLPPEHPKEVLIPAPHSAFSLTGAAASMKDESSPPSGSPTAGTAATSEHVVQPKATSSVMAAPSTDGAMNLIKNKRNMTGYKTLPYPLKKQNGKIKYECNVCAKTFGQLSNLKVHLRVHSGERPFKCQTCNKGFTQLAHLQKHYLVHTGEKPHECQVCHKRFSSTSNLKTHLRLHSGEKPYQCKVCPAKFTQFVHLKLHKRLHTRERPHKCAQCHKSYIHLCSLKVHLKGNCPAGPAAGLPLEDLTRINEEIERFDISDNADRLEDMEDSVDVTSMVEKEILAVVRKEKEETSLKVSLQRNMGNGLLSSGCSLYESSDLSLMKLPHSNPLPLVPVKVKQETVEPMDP
UniProt P70288: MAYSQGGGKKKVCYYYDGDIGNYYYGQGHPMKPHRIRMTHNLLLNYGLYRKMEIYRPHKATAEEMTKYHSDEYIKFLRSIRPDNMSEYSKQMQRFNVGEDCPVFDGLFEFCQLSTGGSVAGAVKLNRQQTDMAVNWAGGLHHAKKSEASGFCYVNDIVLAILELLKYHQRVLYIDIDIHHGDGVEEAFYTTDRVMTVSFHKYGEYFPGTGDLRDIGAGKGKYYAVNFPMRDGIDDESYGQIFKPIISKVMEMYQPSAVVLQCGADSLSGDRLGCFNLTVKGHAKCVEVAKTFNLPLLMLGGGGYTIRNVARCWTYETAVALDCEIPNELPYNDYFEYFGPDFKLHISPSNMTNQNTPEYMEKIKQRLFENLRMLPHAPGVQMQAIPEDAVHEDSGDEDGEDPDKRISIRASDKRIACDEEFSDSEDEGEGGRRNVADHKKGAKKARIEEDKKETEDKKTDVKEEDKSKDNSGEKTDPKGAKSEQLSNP

Experiments:
[1] = biological target: ZBTB32 (mouse (endogenous in CD8+ T cells)) (UniProt Q9JKD9); experiment: proximity ligation; Duolink II proximity ligation assay on fixed, permeabilised WT mouse CD8+ T cells stimulated with αCD3 and αCD28 for 2 days with or without IL-2, IL-4 and IL-12; antibody pairs αBlimp-1 + αZBTB32 or αBlimp-1 + αHDAC2; mouse IgG + rabbit IgG as control; confocal microscopy
[2] = biological target: ZBTB32 (mouse (endogenous in CD8+ T cells)) (UniProt Q9JKD9); experiment: co-IP; WT mouse CD8+ T cells stimulated with αCD3/CD28 for 2 days with or without IL-2, IL-4 and IL-12; immunoprecipitation with αZBTB32 or an IgG control antibody, immunoblotting with αBlimp-1
[3] = biological target: Blimp-1 (mouse (endogenous in CD8+ T cells)) (UniProt Q60636); experiment: proximity ligation; Duolink II proximity ligation assay on fixed, permeabilised WT mouse CD8+ T cells stimulated with αCD3 and αCD28 for 2 days with or without IL-2, IL-4 and IL-12; antibody pairs αBlimp-1 + αZBTB32 or αBlimp-1 + αHDAC2; mouse IgG + rabbit IgG as control; confocal microscopy

Row | binding [1] | binding [2] | binding [3] | Substance
1 | binds | binds | – | Blimp-1 (from UniProt Q60636 1-856)
2 | – | – | binds | HDAC2 (from UniProt P70288 1-488)
